Experimental data taken from patent publication US10857167B2, “Use of oligosaccharide compositions to enhance weight gain” (Children's Hospital Medical Center, priority 2015, dated 2020).
Further values from the same series stand in other lists.

System: distal small bowel gene expression
Assay: RNA sequencing / transcriptional analysis of small bowel 56 days after ICR (2′-FL signature response)
Format: in vivo, mouse
Excerpt: Luminal small bowel contents were expressed into AllProtect Tissue Reagent (Qiagen Inc, CA). Bacterial DNA was extracted using the AllPrep DNA/RNA Mini Kit (Qiagen Inc, CA), according to kit instructions and prior to sequencing (described below). Small bowel tissue samples for RNA were placed into RNA Later (Life Technologies, NY). RNA extraction was accomplished following Qiagen RNeasy Plus Kit instruction (Qiagen Inc, CA). All nucleic acid samples were then stored at -80 Celsius until sequenced (described below). Transcriptional analysis was carried out on resected and harvested small bowel samples obtained from operated mice taken to 8 weeks. Murine RNA sequencing libraries were prepared from approximately 1.5 μg RNA using the TruSeq RNA Sample Preparation Kit (Illumina, Calif.) and sequenced using the HiSeq 2000 Sequencing System (Illumina, Calif.) with single-end 50 bp reads. Following removal of primers and barcodes, sequences were aligned to the mm10 genome using reference annotations from UCSC (Rosenbloom et al. (2015) Nucleic acids research 43: […]-681) (n=36,186 entities). Aligned reads were quantified and used to compute reads per kilobase per million mapped reads (RPKM); raw counts were then normalized using the DESeq algorithm and each harvested sample was baselined to its own resected sample. A filter was applied to the data, requiring at least three reads in all samples of at least one of the four experimental conditions (n=14,489 entities). The data discussed in this publication have been deposited in NCBI's Gene Expression Omnibus and are accessible through NCBI Gene Expression Omnibus (GEO) Series accession number GSE72590. Edgar et al. (2002) Nucleic acids research 30: 207-210. In order to characterize the impact of 2'-FL supplementation while accounting for the effect of ileoecal resection, a t-test was applied between resected and harvested samples within control and experimental animals. Significance was set at a p-value of ≤0.05 and a fold change of 3, which generated 2,576 differentially regulated entities across two comparisons. Gene set unions and intersections of the control and experimental gene sets were identified through Venn diagrams. From the master list, the gene list specific to animals supplemented with 2'-FL were removed in order to identify genes differentially regulated only by ICR (n=546 entities); this gene set characterizes the adaptive response. Further, the 2'-FL response (n=2,030 entities) was identified by removing the adaptive response signature described above from the master list, leaving only genes regulated by 2'-FL supplementation after ICR which were not found in the non-supplemented adaptive response. Heatmaps were generated using hierarchical clustering with the Pearson's Centered distance metric and the average linkage rule; both entities and samples were clustered. All genomic analyses described above were performed in Strand NGS (Strand Life Sciences, CA). Gene list functional enrichment was initially discovered using ToppFun, a member of the ToppGene Suite. Chen et al. (2009) Nucleic acids research 37: […]-311. No statistical correction was selected. Gene lists were further analyzed using ClueGO, a plugin for Cytoscape designed to decipher functionally grouped gene ontology and pathway annotation networks. Bindea et al. (2009) Bioinformatics 25: 1091-1093. At the time of data analysis, the annotation files were updated from sources to Jan. 1, 2015. “GO Term Fusion” was enabled to manage ontologic term redundancy and network specificity was set to medium. Results were restricted to pathways with p≤0.05 using Benjamini-Hochberg correction and Kappa scoring was set to 0.4. Biocyc annotations were assigned a rectangle, gene ontology biologic processes were assigned an ellipse, and […] annotations were assigned a diamond shape. No meaning was assigned to size or color. […]

SMILES: C[C@@H]1O[C@@H](O[C@H]2[C@H](O[C@H]3[C@H](O)[C@@H](O)C(O)O[C@@H]3CO)O[C@H](CO)[C@H](O)[C@@H]2O)[C@@H](O)[C@H](O)[C@@H]1O (stereo partly shown) [2′-FL, 2′-fucosyllactose]
- Fold Change (Pre- to Post-op) (gene Tmem201): −3.629
- Fold Change (Pre- to Post-op) (gene Tmem231): −7.662
- Fold Change (Pre- to Post-op) (gene Tmod2): −6.959
- Fold Change (Pre- to Post-op) (gene Tnfrsf19): −3.766
- Fold Change (Pre- to Post-op) (gene Tnfrsf22): −4.648
- Fold Change (Pre- to Post-op) (gene Tnfrsf26): −4.56
- Fold Change (Pre- to Post-op) (gene Tnks): −3.089
- Fold Change (Pre- to Post-op) (gene Tnrc6b): −6.379
- Fold Change (Pre- to Post-op) (gene Tnrc6c): −4.634
- Fold Change (Pre- to Post-op) (gene Tnrc18): −7.712
- Fold Change (Pre- to Post-op) (gene Tns1): −6.858
- Fold Change (Pre- to Post-op) (gene Tns3): −6.014
- Fold Change (Pre- to Post-op) (gene Tpp1): −3.05
- Fold Change (Pre- to Post-op) (gene Trabd2b): −3.697
- Fold Change (Pre- to Post-op) (gene Traf3): −3.02
- Fold Change (Pre- to Post-op) (gene Tram2): −3.411
- Fold Change (Pre- to Post-op) (gene Trf): −5.128
- Fold Change (Pre- to Post-op) (gene Trim44): −5.532
- Fold Change (Pre- to Post-op) (gene Trio): −4.393
- Fold Change (Pre- to Post-op) (gene Trip11): −4.536
- Fold Change (Pre- to Post-op) (gene Trpc4): −3.068
- Fold Change (Pre- to Post-op) (gene Trpm2): −4.564
- Fold Change (Pre- to Post-op) (gene Trpm6): −6.685
- Fold Change (Pre- to Post-op) (gene Trps1): −3.575
- Fold Change (Pre- to Post-op) (gene Trrap): −3.461
- Fold Change (Pre- to Post-op) (gene Tshz1): −3.979
- Fold Change (Pre- to Post-op) (gene Tshz2): −4.651
- Fold Change (Pre- to Post-op) (gene Tspan18): −4.858
- Fold Change (Pre- to Post-op) (gene Ttll5): −3.121
- Fold Change (Pre- to Post-op) (gene Ttyh3): −6.263
- Fold Change (Pre- to Post-op) (gene Tub): −3.359
- Fold Change (Pre- to Post-op) (gene Tubb4a): −7.968
- Fold Change (Pre- to Post-op) (gene Tusc5): −7.014
- Fold Change (Pre- to Post-op) (gene Uaca): −4.543
- Fold Change (Pre- to Post-op) (gene Ubap2): −8.098
- Fold Change (Pre- to Post-op) (gene Ubap2l): −3.895
- Fold Change (Pre- to Post-op) (gene Ube2o): −3.104
- Fold Change (Pre- to Post-op) (gene Ubr4): −5.118
- Fold Change (Pre- to Post-op) (gene Uhrf1bp1): −3.775
- Fold Change (Pre- to Post-op) (gene Unc5a): −9.201
- Fold Change (Pre- to Post-op) (gene Unc45b): −5.787
- Fold Change (Pre- to Post-op) (gene Usp11): −3.121
- Fold Change (Pre- to Post-op) (gene Usp36): −3.12
- Fold Change (Pre- to Post-op) (gene Usp43): −3.058
- Fold Change (Pre- to Post-op) (gene Usp48): −3.111
- Fold Change (Pre- to Post-op) (gene Ust): −5.289
- Fold Change (Pre- to Post-op) (gene Vcl): −3.025
- Fold Change (Pre- to Post-op) (gene Vldlr): −3.708
- Fold Change (Pre- to Post-op) (gene Vps13c): −9.132
- Fold Change (Pre- to Post-op) (gene Vps13d): −4.344
- Fold Change (Pre- to Post-op) (gene Vwa5b2): −4.585
- Fold Change (Pre- to Post-op) (gene Vwf): −5.511
- Fold Change (Pre- to Post-op) (gene Wasf2): −5.725
- Fold Change (Pre- to Post-op) (gene Wdfy3): −3.629
- Fold Change (Pre- to Post-op) (gene Wdr19): −6.358
- Fold Change (Pre- to Post-op) (gene Wdr81): −3.261
- Fold Change (Pre- to Post-op) (gene Wfs1): −3.458
- Fold Change (Pre- to Post-op) (gene Whrn): −6.862
- Fold Change (Pre- to Post-op) (gene Wipf2): −3.465
- Fold Change (Pre- to Post-op) (gene Wiz): −4.998
- Fold Change (Pre- to Post-op) (gene Wnk2): −7.591
- Fold Change (Pre- to Post-op) (gene Wnk4): −4.178
- Fold Change (Pre- to Post-op) (gene Wnt2b): −4.049
- Fold Change (Pre- to Post-op) (gene Wscd1): −3.538
- Fold Change (Pre- to Post-op) (gene Wwc2): −3.601
- Fold Change (Pre- to Post-op) (gene Xpnpep2): −5.854
- Fold Change (Pre- to Post-op) (gene Xpo4): −3.823
- Fold Change (Pre- to Post-op) (gene Xpo5): −3.483
- Fold Change (Pre- to Post-op) (gene Xpo6): −3.587
- Fold Change (Pre- to Post-op) (gene Xrn1): −3.581
- Fold Change (Pre- to Post-op) (gene Xylb): −3.192
- Fold Change (Pre- to Post-op) (gene Xylt1): −4.613
- Fold Change (Pre- to Post-op) (gene Ylpm1): −3.027
- Fold Change (Pre- to Post-op) (gene Zan): −4.025
- Fold Change (Pre- to Post-op) (gene Zbed3): −3.297
- Fold Change (Pre- to Post-op) (gene Zbtb4): −3.273
- Fold Change (Pre- to Post-op) (gene Zbtb7a): −4.116
- Fold Change (Pre- to Post-op) (gene Zbtb12): −6.781
- Fold Change (Pre- to Post-op) (gene Zbtb16): −5.056
- Fold Change (Pre- to Post-op) (gene Zbtb34): −13.15
- Fold Change (Pre- to Post-op) (gene Zbtb38): −4.98
- Fold Change (Pre- to Post-op) (gene Zbtb39): −5.896
- Fold Change (Pre- to Post-op) (gene Zc3h3): −5.66
- Fold Change (Pre- to Post-op) (gene Zc3h13): −3.523
- Fold Change (Pre- to Post-op) (gene Zcchc2): −4.607
- Fold Change (Pre- to Post-op) (gene Zcchc3): −4.568
- Fold Change (Pre- to Post-op) (gene Zcchc14): −3.022
- Fold Change (Pre- to Post-op) (gene Zdhhc23): −7.668
- Fold Change (Pre- to Post-op) (gene Zfand2b): 3.034
- Fold Change (Pre- to Post-op) (gene Zfp39): −3.935
- Fold Change (Pre- to Post-op) (gene Zfp78): −4.208
- Fold Change (Pre- to Post-op) (gene Zfp142): −4.378
- Fold Change (Pre- to Post-op) (gene Zfp316): −6.6049
- Fold Change (Pre- to Post-op) (gene Zfp319): −4.835
- Fold Change (Pre- to Post-op) (gene Zfp362): −4.867
- Fold Change (Pre- to Post-op) (gene Zfp366): −5.36
- Fold Change (Pre- to Post-op) (gene Zfp369): −4.375
- Fold Change (Pre- to Post-op) (gene Zfp385a): −4.214
- Fold Change (Pre- to Post-op) (gene Zfp395): −7.634
- Fold Change (Pre- to Post-op) (gene Zfp398): −3.277
- Fold Change (Pre- to Post-op) (gene Zfp423): −6.103
- Fold Change (Pre- to Post-op) (gene Zfp462): −4.644
- Fold Change (Pre- to Post-op) (gene Zfp516): −4.953
- Fold Change (Pre- to Post-op) (gene Zfp526): −3.97
- Fold Change (Pre- to Post-op) (gene Zfp532): −4.928
- Fold Change (Pre- to Post-op) (gene Zfp553): −3.258
- Fold Change (Pre- to Post-op) (gene Zfp574): −4.871
- Fold Change (Pre- to Post-op) (gene Zfp592): −3.655
- Fold Change (Pre- to Post-op) (gene Zfp628): −3.704
- Fold Change (Pre- to Post-op) (gene Zfp629): −3.832
- Fold Change (Pre- to Post-op) (gene Zfp647): 3.041
- Fold Change (Pre- to Post-op) (gene Zfp703): −4.487
- Fold Change (Pre- to Post-op) (gene Zfp704): −3.446
- Fold Change (Pre- to Post-op) (gene Zfp871): −3.045
- Fold Change (Pre- to Post-op) (gene Zfyve26): −3.656
- Fold Change (Pre- to Post-op) (gene Zkscan8): −3.104
- Fold Change (Pre- to Post-op) (gene Zkscan17): −3.061
- Fold Change (Pre- to Post-op) (gene Zmiz1): −6.799
- Fold Change (Pre- to Post-op) (gene Zmiz2): −4.971
- Fold Change (Pre- to Post-op) (gene Znfx1): −3.12
- Fold Change (Pre- to Post-op) (gene zfp777): −3.801
